## Primary screen of a compound library

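Assay of Toxoplasma gondii numbers, read through their beta-galactosidase reporter with a colour substrate. Concentration: 50 µM. Higher reads as fewer parasites (inferred from which compounds were picked for retests). About 18,000 compounds were tested under these conditions; 0.94% (about 170) showed 50% or more at least once.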

Results are given as percent effect. The controls that fix the scale are not given in the record; negative values are as filed. This is an unselected part of the compounds tested.

compound: CC(=O)CCCc1cccnc1
percent effect: -0.5257

compound: O=C1C=CC(=O)N1Cc1ccc(Cl)cc1
percent effect: -11.21

compound: Cn1cncc1CCNC(=O)CC1CC1
percent effect: -3.976

compound: CC(=O)c1ccc(N)nc1
percent effect: -3.084

compound: CN1C(=O)C[C@H](CN)[C@H]1c1cnn(C)c1
percent effect: 0.7466

compound: OCCNCCNCc1ccc(-c2ccccc2)o1
percent effect: 1.266

compound: NCC1CCCCN1C(=O)Cc1ccc(F)cc1F (stereo not shown)
percent effect: 1.675

compound: CC(O)c1cc2n(n1)CCN(Cc1cccnc1)C2 (stereo not shown)
percent effect: -7.404

compound: CC(C)c1cc(C(=O)N(C)C(C)c2ccon2)on1 (stereo not shown)
percent effect: 10.45

compound: CNC(=O)c1c(C)nn(-c2ccc(F)cc2)c1Cl
percent effect: -0.743

compound: NCc1ccc(NC(=O)CCN2CCCC2)cc1
percent effect: 5.529

compound: CC1NCc2ccccc2NC1=O (stereo not shown)
percent effect: -36.48

compound: NC(=O)COc1ccc(CNCc2ccccc2)cc1
percent effect: 35.66

compound: CC(N)CCc1ccc2c(c1)OCO2 (stereo not shown)
percent effect: -1.555

compound: Cc1ccc(C(CN)N2CCOCC2)o1 (stereo not shown)
percent effect: 9.907

compound: Cc1nc(C(C)C)sc1C(=O)NC[C@@H]1CCNC[C@H]1O
percent effect: 6.538

compound: Cn1cc([C@@H]2[C@@H](CN)CC(=O)N2C(C)(C)C)cn1
percent effect: -8.633

compound: O=C(CC1CCc2ccccc21)NCc1ccncc1 (stereo not shown)
percent effect: 11.09

compound: NCc1ccccc1OC(F)(F)F
percent effect: 14.39

compound: COc1cc(OC)cc(Oc2cccc(CN)c2)c1
percent effect: 8.154

compound: Cc1conc1CO
percent effect: -11.93

compound: CC(C)(C)NCCNC(=O)CCc1cccnc1
percent effect: -13.57

compound: O=C(CN(CC(=O)NC1CC1)C1CC1)NC1CC1
percent effect: 11.2

compound: COc1ccc(C)cc1C(=O)NCCCC(=O)N(C)C
percent effect: -8.309

compound: CC(c1nc(-c2ccccn2)no1)N1CCSCC1 (stereo not shown)
percent effect: -1.007

compound: CC(C)n1c(CO)nc2ccccc21
percent effect: 10.21

compound: Cn1cncc1CCNC(=O)CCc1ccoc1
percent effect: 4.833

compound: CC1Oc2ccccc2C(=O)N(C)C1=O (stereo not shown)
percent effect: 3.391

compound: CC(C)CC(C)(NCCCS(C)(=O)=O)C(N)=O (stereo not shown)
percent effect: -14.97

compound: CCC(N)(CC)CNS(=O)(=O)c1cccc(F)c1
percent effect: 2.751

compound: Cc1n[nH]c(C)c1C(N)C(=O)NCCN1CCCC1 (stereo not shown)
percent effect: 11.83

compound: COCCN1CCN(Cc2cc(C(C)(C)C)[nH]n2)CC1
percent effect: -4.917

compound: CC1COCCN1C(=O)NCCC1=CCOCC1 (stereo not shown)
percent effect: 3.178

compound: CNC(=O)N1CCN(c2ccc(Cl)cn2)CC1
percent effect: -11.25

compound: N#Cc1ccc(F)cc1CNC1(CCO)CCOCC1
percent effect: -2.49

The values are deposited in ChEMBL (CHEMBL3988442, “University of Dundee, Small-Polar-MMV Screening Library” (2021)).